According to the supplement of paper PMC6078165:
The reference is the same well before dosing, and untreated signal decays as well.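 Labels refer to human fibroblasts, largely primary: uterine (C12385, HUF), lung (H6013), bone (Hs27A), adrenal (HADF), skin (WS1), plus mammary HMF and breast cancer-associated Hs343T. Cancer lines are basal-like or mesenchymal-like triple-negative breast cancer. The paper counts as hits responses shifting over 3x the replicate standard deviation. The tissue of the other fibroblasts is not given here.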

Tested on: MDAMB468
Assay: relative JC-1 red fluorescence (viability) vs pre-drug, coculture with fibroblast (fraction); higher = more viable cancer cells
Description: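 JC-1 labelled TNBC cells cocultured 1:1 (1,500 cells each) with CellTrace Violet stained primary or stromal fibroblasts in 384-well plates in FluoroBrite medium, treated with one of 42 anticancer drugs at 0.1, 1, 10 or 100 uM. JC-1 red fluorescence (mitochondrial integrity in cancer cells only) was read by plate reader every 8 h for 72 h. Values are normalised to each well's pre-drug value. The stock of one drug was tenfold lower, so its dose labels may be too high.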

CC(=O)c1c(C)c2cnc(Nc3ccc(N4CCNCC4)cn3)nc2n(C2CCCC2)c1=O [Palbociclib]
relative JC-1 red fluorescence
Conditions | 8 h | 16 h | 24 h | 32 h | 40 h | 48 h | 56 h | 64 h | 72 h
10 µM, coculture fibroblast: C12385 | 0.92 | 0.9112 | 0.91088 | 0.8846 | 0.8659 | 0.8775 | 0.82879 | 0.7803 | 0.746
10 µM, coculture fibroblast: H6013 | 0.932 | 0.932 | 0.923 | 0.839 | 0.958 | 0.848 | 0.889 | 0.86 | 0.866
10 µM, coculture fibroblast: H6019 | 0.8774 | 0.883 | 0.896 | 0.847 | 0.831 | 0.81 | 0.757 | 0.73 | 0.718
10 µM, coculture fibroblast: H6076 | 0.97567 | 0.823 | 0.803 | 0.7339 | 0.928 | 0.83 | 0.928 | 0.911 | 0.913
10 µM, coculture fibroblast: H6231 | 0.8322 | 0.801 | 0.86 | 0.893 | 0.827 | 0.785 | 0.955 | 0.943 | 0.903
10 µM, coculture fibroblast: HADF | 0.9243 | 0.937 | 0.9226 | 0.976 | 0.932 | 0.941 | 0.908 | 0.903 | 0.881
10 µM, coculture fibroblast: HCFa | 0.8978 | 0.903 | 0.9048 | 0.9149 | 0.858 | 0.847 | 0.7925 | 0.7501 | 0.7051
10 µM, coculture fibroblast: HCPF | 0.8871 | 0.748 | 0.777 | 0.759 | 0.834 | 0.851 | 0.845 | 0.943 | 0.878
10 µM, coculture fibroblast: HHSteC | 0.9559 | 0.9366 | 0.918 | 0.933 | 0.902 | 0.9216 | 0.8834 | 0.872 | 0.828
10 µM, coculture fibroblast: HMF | 0.8548 | 0.757 | 0.791 | 0.925 | 0.967 | 0.937 | 0.889 | 0.877 | 0.827
10 µM, coculture fibroblast: HPFa | 0.959 | 0.849 | 0.879 | 0.821 | 0.86 | 0.9262 | 0.935 | 0.912 | 0.85
10 µM, coculture fibroblast: HUF | 0.951 | 0.921 | 0.903 | 0.86077 | 0.8331 | 0.8132 | 0.7692 | 0.7359 | 0.7153
10 µM, coculture fibroblast: Hs5 | 0.89 | 0.771 | 0.788 | 0.883 | 0.862 | 0.839 | 0.83 | 0.967 | 0.88
10 µM, coculture fibroblast: Hs27A | 0.88556 | 0.899 | 0.859 | 0.863 | 0.805 | 0.784 | 0.749 | 0.721 | 0.697
10 µM, coculture fibroblast: Hs343T | 0.911 | 0.883 | 0.836 | 0.92 | 0.802 | 0.785 | 0.874 | 0.875 | 0.834
10 µM, coculture fibroblast: WS1 | 0.919 | 0.8944 | 0.909 | 0.9124 | 0.89 | 0.849 | 0.829 | 0.785 | 0.756
100 µM, coculture fibroblast: C12385 | 0.587 | 0.471 | 0.447 | 0.408 | 0.378 | 0.379 | 0.363 | 0.349 | 0.332
100 µM, coculture fibroblast: H6013 | 0.575 | 0.3722 | 0.3159 | 0.2697 | 0.25 | 0.2276 | 0.199 | 0.176 | 0.128
100 µM, coculture fibroblast: H6019 | 0.554 | 0.388 | 0.336 | 0.273 | 0.237 | 0.218 | 0.178 | 0.158 | 0.143
100 µM, coculture fibroblast: H6076 | 0.926 | 0.821 | 0.861 | 0.852 | 0.797 | 0.744 | 0.681 | 0.637 | 0.67
100 µM, coculture fibroblast: H6231 | 0.8756 | 0.939 | 0.974 | 0.966 | 0.93 | 0.913 | 0.865 | 0.842 | 0.817
100 µM, coculture fibroblast: HADF | 0.556 | 0.388 | 0.321 | 0.274 | 0.254 | 0.232 | 0.2 | 0.186 | 0.131
100 µM, coculture fibroblast: HCFa | 0.647 | 0.382 | 0.31 | 0.265 | 0.235 | 0.215 | 0.184 | 0.157 | 0.115
100 µM, coculture fibroblast: HCPF | 0.895 | 0.8908 | 0.736 | 0.694 | 0.74 | 0.7 | 0.647 | 0.633 | 0.618
100 µM, coculture fibroblast: HHSteC | 0.611 | 0.419 | 0.354 | 0.295 | 0.278 | 0.264 | 0.216 | 0.196 | 0.148
100 µM, coculture fibroblast: HMF | 0.8147 | 0.9081 | 0.813 | 0.7756 | 0.622 | 0.556 | 0.491 | 0.444 | 0.421
100 µM, coculture fibroblast: HPFa | 0.876 | 0.558 | 0.47 | 0.386 | 0.372 | 0.357 | 0.303 | 0.284 | 0.221
100 µM, coculture fibroblast: HUF | 0.687 | 0.461 | 0.401 | 0.339 | 0.296 | 0.274 | 0.235 | 0.212 | 0.193
100 µM, coculture fibroblast: Hs5 | 0.913 | 0.888 | 0.851 | 0.7583 | 0.592 | 0.532 | 0.481 | 0.43 | 0.437
100 µM, coculture fibroblast: Hs27A | 0.582 | 0.396 | 0.327 | 0.286 | 0.262 | 0.242 | 0.219 | 0.196 | 0.148
100 µM, coculture fibroblast: Hs343T | 0.864 | 0.932 | 0.788 | 0.692 | 0.546 | 0.497 | 0.442 | 0.41 | 0.391
100 µM, coculture fibroblast: WS1 | 0.448 | 0.367 | 0.309 | 0.25 | 0.209 | 0.185 | 0.155 | 0.13 | 0.115
